Assay results reported in PMC6953771.
No constants are given. Whether binding was seen depends on the method and setting. Binding seen in cells or lysates may run through a third protein. Some entries that bind do so weakly or less than the wild type.

Target: hnRNP-K (human (endogenous in LoVo and HT-29)) (UniProt P61978)
Test: co-IP; LoVo and HT-29 cell lysates (50 mmol/L Tris-HCl pH 7.5, 150 mmol/L NaCl, 0.2% Nonidet P-40, 5% glycerol, 1% Tween 20) incubated with hnRNP-K antibody (ab52600) at 4°C for 3 h, protein A/G Sepharose overnight, western blot; cells with shLINC01413, pGIPZ/LINC01413, pGIPZ/hnRNP-K or sh-hnRNP-K

binding	Substance
binds	TAZ1 (from UniProt Q9GZV5 1-400)
binds	YAP1 (yes-associated protein 1) (from UniProt P46937 1-504)
